Laboratory results published in PMC5773696.
Positions count from the first letter of the chain named. Results are given in words; binding and its absence hold for the method and conditions named. For some of these results: Binding seen in cells or lysates may run through a third protein. Some entries that bind do so weakly or less than the wild type. Tags and fused reporters may be left off the sequences shown. Each block holds one molecule with its values, some of them ahead of it.

The chains behind the UniProt entries cited, without tags or fusion partners. Where a name states a change or a piece, a line headed by the entry shows the natural chain unless it says otherwise.
UniProt P19525: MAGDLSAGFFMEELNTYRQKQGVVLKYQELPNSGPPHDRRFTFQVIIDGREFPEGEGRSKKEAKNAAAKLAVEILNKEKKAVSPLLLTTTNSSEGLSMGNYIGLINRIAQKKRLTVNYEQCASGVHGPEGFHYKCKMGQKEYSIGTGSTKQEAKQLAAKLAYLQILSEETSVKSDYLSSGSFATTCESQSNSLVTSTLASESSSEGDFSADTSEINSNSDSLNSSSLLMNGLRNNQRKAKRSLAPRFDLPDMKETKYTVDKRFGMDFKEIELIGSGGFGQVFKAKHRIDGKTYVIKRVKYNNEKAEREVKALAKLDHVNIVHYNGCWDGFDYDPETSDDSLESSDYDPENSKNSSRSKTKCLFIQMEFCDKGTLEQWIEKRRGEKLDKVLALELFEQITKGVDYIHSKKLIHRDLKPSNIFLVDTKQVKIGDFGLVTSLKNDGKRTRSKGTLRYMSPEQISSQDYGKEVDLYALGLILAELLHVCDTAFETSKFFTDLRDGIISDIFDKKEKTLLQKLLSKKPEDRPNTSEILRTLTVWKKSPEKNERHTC

Experiments:
[1] = molecular target: T1, myc TRBP AAAA (myc TRBP AAAA/pcDNA 3.1-), phospho-defective point mutant (UniProt Q15633); assay: co-IP; HeLa cells co-transfected with Flag K296R PKR and myc TRBP forms, harvested after 24 h; myc TRBP precipitated with anti-c-myc agarose overnight at 4 °C in 150 mM NaCl, 20 mM Tris-HCl pH 7.5, 1 mM EDTA, 1% Triton X-100, 20% glycerol; blot with anti-Flag
T1 sequence: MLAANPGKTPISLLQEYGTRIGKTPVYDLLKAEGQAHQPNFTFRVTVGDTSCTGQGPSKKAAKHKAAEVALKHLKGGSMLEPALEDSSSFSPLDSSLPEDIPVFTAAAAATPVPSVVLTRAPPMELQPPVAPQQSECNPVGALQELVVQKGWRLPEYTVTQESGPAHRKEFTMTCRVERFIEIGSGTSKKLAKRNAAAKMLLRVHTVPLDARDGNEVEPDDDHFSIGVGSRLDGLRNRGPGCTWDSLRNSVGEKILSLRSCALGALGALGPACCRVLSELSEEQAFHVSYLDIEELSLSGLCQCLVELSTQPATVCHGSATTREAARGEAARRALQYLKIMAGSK

[2] = molecular target: T2, myc TRBP DDDD (myc TRBP DDDD/pcDNA 3.1-), phospho-mimic point mutant (UniProt Q15633); assay: as above
T2 sequence: T1 sequence with A121D, A131D, A262D, A265D

[3] = molecular target: T3, myc wt TRBP (myc wt TRBP/pcDNA 3.1-) (UniProt Q15633); assay: as above
T3 sequence: T1 sequence with A121S, A131S, A262S, A265S

[4] = molecular target: T4, AAAA TRBP (phospho-defective point mutant), yeast two-hybrid fusion (AAAA TRBP/pGBKT7; AAAA TRBP/pGADT7) (UniProt Q15633); assay: two-hybrid; K296R PKR as GAL4 activation domain fusion (pGAD424), TRBP forms as GAL4 DNA-binding domain fusions (pGBKT7); AH109 yeast; growth of serial dilutions on medium lacking histidine, tryptophan and leucine with 10 mM 3-AT, 30 °C, 3 days
T4 sequence: T1 sequence

[5] = molecular target: T5, DDDD TRBP (phospho-mimic point mutant), yeast two-hybrid fusion (DDDD TRBP/pGBKT7; DDDD TRBP/pGADT7) (UniProt Q15633); assay: as above
T5 sequence: T1 sequence with A121D, A131D, A262D, A265D

[6] = molecular target: T6, wt TRBP, GAL4 DNA-binding domain fusion (wt TRBP/pGBKT7) (UniProt Q15633); assay: as above
T6 sequence: T1 sequence with A121S, A131S, A262S, A265S

[7] = molecular target: recombinant hexahistidine-tagged PKR (His-PKR) (UniProt P19525); assay: pull-down; His-PKR immobilised on Ni2+-agarose; 25 ug extract of Flag TRBP HeLa Tet off cells, untreated or treated with 25 uM sodium arsenite for 2, 4, 8 and 12 h, with phosphatase inhibitor; 20 mM Tris-HCl pH 7.5, 150 mM NaCl, 1 mM EDTA, 1 mM DTT, 1% Triton-X 100, 2% glycerol; 4 °C, 1 h; blot with anti-Flag; only the target purified

- binding [1]: binds
- binding [2]: binds
- binding [3]: binds
Molecule: Flag K296R PKR (Flag K296R PKR/pcDNA 3.1-) (from UniProt P19525 1-551)

- binding [4]: binds
- binding [5]: binds
- binding [6]: binds
Molecule: K296R PKR, GAL4 activation domain fusion (K296R PKR/pGAD424) (from UniProt P19525 1-551)

- binding [7]: binds weakly
B1: Flag-TRBP from the stable HeLa Tet off line (Flag TRBP/pTRE2pur), cells without stress (protein, UniProt Q15633-2 1-345)
chain: T1 sequence with A121S, A131S, A262S, A265S
